From patent US20160347802A1
These are yes or no findings as the source states them, for the method shown.

What was measured:
[1] = target: T1, human DRAXIN, AVEXIS prey or bait protein (human), Q8NBI3; experiment: AVEXIS, prey DRAXIN on bait DRAXIN; settings: remark: other sources report otherwise
T1 chain: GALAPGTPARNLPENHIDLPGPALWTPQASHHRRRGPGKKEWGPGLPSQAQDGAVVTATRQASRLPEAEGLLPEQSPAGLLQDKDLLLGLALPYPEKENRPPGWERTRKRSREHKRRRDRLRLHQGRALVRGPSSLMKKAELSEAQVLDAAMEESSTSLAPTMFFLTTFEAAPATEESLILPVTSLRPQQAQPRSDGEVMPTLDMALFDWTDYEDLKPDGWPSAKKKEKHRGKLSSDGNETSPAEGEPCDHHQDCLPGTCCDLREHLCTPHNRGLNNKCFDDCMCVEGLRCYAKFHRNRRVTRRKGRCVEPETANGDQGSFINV

[2] = target: T1, human DRAXIN, AVEXIS prey or bait …; experiment: AVEXIS, pentameric prey human DRAXIN on bait hDRAXIN; settings: remark: other sources report otherwise

binding [1]: no binding
binding [2]: no binding
B1: human DRAXIN, AVEXIS prey or bait protein, Q8NBI3 26-349 (ligand)
chain: T1 chain
